Data on five substances can be found in US20100267626A1, “METHODS AND COMPOSITIONS FOR MEASURING WNT ACTIVATION AND FOR TREATING WNT-RELATED CANCERS” (Novartis AG, priority 2007, published 2010).

Chains of the proteins cited; added tags and fusions are not shown. Lines headed by an entry give the natural chain unless they say otherwise; changes in a name come on top.
UniProt O95271: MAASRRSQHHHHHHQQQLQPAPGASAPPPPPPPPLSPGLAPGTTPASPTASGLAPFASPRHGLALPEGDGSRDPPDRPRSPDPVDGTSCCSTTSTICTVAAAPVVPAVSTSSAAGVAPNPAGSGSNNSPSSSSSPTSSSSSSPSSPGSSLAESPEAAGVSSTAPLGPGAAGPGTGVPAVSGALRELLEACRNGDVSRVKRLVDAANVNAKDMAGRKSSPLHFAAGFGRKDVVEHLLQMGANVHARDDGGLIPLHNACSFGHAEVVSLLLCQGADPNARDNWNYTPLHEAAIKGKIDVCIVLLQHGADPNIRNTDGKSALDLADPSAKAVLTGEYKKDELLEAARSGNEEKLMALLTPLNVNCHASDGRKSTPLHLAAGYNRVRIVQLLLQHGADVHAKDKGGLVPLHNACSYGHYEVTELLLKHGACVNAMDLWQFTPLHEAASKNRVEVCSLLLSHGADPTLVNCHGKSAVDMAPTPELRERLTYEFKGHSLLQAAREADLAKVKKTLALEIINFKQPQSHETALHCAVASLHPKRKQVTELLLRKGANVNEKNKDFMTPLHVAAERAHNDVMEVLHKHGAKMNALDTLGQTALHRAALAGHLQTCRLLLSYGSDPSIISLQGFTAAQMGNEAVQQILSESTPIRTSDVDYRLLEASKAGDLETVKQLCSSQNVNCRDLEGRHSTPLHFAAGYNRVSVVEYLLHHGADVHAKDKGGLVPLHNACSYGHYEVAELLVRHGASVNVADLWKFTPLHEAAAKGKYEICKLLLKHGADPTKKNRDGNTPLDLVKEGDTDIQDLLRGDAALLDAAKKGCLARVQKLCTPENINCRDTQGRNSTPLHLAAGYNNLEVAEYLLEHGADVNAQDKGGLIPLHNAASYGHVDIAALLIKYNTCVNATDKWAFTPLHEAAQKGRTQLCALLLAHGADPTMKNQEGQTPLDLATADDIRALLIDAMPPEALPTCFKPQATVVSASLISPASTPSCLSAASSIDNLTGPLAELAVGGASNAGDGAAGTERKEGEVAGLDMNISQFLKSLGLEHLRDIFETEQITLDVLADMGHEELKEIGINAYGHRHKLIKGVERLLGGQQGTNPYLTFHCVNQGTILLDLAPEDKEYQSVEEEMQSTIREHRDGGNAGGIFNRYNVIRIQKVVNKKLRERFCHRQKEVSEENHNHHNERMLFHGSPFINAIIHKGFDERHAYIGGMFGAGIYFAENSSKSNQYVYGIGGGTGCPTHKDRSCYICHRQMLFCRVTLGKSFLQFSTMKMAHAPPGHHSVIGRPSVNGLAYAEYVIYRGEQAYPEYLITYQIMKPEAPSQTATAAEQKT
UniProt Q9Y2T1: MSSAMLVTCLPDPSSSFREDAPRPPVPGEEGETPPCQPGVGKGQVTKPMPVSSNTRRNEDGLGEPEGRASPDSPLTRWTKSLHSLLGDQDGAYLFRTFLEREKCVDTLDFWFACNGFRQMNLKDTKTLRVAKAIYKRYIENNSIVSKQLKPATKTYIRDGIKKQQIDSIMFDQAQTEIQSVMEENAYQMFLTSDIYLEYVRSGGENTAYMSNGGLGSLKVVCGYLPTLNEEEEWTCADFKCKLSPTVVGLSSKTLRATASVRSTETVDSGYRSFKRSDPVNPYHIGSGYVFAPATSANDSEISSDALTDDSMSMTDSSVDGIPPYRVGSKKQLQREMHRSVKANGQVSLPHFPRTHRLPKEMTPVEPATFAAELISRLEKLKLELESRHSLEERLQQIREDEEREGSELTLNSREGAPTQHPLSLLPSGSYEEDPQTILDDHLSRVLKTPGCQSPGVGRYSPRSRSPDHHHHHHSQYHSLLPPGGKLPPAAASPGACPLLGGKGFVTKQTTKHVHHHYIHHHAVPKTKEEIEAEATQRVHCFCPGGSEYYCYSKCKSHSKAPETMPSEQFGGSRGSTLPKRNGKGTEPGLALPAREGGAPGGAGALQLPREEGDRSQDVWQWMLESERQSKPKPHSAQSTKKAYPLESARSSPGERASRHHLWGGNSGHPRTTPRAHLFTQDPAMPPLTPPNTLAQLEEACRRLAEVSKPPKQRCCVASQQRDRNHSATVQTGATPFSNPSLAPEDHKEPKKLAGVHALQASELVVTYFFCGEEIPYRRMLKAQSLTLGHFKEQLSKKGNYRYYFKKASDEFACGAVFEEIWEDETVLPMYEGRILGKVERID
UniProt O35625: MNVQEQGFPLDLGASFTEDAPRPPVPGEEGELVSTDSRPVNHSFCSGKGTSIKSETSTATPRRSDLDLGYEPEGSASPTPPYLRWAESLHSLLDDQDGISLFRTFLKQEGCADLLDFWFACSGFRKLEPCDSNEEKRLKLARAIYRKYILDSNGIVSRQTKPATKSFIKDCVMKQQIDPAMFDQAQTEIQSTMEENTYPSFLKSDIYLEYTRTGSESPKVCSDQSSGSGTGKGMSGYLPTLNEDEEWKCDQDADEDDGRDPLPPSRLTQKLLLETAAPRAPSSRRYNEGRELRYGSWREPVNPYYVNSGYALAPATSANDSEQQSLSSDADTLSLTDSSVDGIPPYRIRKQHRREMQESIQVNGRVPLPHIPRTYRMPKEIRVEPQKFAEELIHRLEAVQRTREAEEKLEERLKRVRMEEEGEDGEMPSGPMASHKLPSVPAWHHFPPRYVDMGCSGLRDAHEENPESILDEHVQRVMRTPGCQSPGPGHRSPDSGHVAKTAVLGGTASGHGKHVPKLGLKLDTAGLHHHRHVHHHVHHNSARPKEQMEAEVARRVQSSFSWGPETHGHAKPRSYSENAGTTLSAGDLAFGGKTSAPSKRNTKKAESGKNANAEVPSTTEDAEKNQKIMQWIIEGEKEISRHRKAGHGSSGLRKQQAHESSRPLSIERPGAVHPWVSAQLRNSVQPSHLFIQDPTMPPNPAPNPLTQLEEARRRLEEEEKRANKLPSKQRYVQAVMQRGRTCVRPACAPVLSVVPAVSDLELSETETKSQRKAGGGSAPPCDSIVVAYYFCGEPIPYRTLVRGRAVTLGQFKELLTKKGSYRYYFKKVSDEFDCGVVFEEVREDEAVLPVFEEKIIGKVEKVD

No constants are given. Whether binding was seen depends on the method and setting. For some of these results: In cells and extracts the contact can be indirect. Some entries that bind do so weakly or less than the wild type.

In assay [1] the target is T1, TNKS2, yeast two-hybrid construct (UniProt Q9H2K2).
T1 sequence (looked up): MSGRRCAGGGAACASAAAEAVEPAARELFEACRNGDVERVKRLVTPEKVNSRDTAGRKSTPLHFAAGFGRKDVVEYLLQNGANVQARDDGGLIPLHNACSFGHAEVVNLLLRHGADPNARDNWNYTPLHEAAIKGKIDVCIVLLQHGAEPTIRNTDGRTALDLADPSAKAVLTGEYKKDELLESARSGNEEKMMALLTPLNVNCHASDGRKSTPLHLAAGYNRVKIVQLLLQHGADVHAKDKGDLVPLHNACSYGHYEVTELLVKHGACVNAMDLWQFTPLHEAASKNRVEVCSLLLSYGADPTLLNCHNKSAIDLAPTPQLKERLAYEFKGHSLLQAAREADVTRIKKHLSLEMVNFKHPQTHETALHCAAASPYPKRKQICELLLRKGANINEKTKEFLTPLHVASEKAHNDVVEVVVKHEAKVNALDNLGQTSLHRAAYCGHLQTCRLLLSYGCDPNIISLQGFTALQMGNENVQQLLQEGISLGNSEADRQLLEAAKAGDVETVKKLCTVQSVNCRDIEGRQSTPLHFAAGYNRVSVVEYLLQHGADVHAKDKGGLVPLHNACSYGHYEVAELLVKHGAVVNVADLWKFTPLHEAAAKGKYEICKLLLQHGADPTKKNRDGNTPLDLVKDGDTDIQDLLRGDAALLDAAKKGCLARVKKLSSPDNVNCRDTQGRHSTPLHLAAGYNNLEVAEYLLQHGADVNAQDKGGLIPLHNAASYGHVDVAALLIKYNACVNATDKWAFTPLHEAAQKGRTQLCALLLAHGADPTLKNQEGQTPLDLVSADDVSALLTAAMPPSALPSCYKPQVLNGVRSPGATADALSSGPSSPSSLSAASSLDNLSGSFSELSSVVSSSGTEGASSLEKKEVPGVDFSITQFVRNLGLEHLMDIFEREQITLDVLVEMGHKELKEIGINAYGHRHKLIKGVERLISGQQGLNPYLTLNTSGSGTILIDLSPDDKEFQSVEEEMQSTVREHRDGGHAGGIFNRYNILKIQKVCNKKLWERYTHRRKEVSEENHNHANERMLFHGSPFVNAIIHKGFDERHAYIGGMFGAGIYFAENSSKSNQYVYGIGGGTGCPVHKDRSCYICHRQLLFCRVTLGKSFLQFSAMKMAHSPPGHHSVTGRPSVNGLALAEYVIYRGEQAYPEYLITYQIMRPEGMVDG
Nature of the assay: yeast two-hybrid, LacZ (X-gal) filter lift.

Assay [2] deals with TNKS1 (human), yeast two-hybrid prey in pGAD-T7 (human) (UniProt O95271). Briefly: yeast two-hybrid, LacZ (X-gal) filter lift.
Assay [3] has as its target Flag-TNKS1 (human TNKS1 with FLAG epitope at the amino terminus), overexpressed in HEK293 cells (human) (UniProt O95271). Briefly: co-immunoprecipitation with anti-Flag antibodies from transfected HEK293 cells.
Assay [4] shares this target. Briefly: GST pull-down: GST-Axin1 fusion on glutathione-agarose beads, lysate of HEK293 cells overexpressing Flag-TNKS1.
Assay [5] deals with Axin2, endogenous protein in SW480 cells (human) (UniProt Q9Y2T1). Briefly: co-immunoprecipitation of endogenous proteins from SW480 lysate.
The target is the same in assay [6]. Briefly: co-immunoprecipitation with anti-Axin2 antibody from SW480 lysate, immunoblot. Background: In western blotting, separated proteins are transferred to a membrane and probed.
In assay [7] the target is Axin1 (mouse), yeast two-hybrid bait in pGBK-T7 (mouse) (UniProt O35625). Nature of the assay: yeast two-hybrid with TNKS1 fragments.

In the case of “Axin1 (mouse), yeast two-hybrid bait in pGBK-T7 (from UniProt O35625 1-863)”, the binding result in assay [1] and in assay [2] was “binds” each time.
In the case of “Axin1 construct transfected into HEK293 cells for co-immunoprecipitation with TNKS1 (from UniProt O35625 1-863)”, in assay [3], the binding result is listed as “binds”.
Regarding “GST-AxinN (amino-terminal 87 amino acid residues of Axin1 fused to GST) (from UniProt O35625 1-87)”, the binding result in assay [4] is given as “binds”.
In the case of “TNKS1 (Tankyrase 1), endogenous protein in SW480 cells (from UniProt O95271 1-1327) (enzyme)”, the binding result in assay [5] and in assay [6] was “binds” each time.
For “TNKS1 region spanning III, IV, and V ankyrin repeat domains, yeast two-hybrid fragment (from UniProt O95271 488-957)”, the binding result in assay [7] is listed as “binds”.
